This is one part of the list.
Columns and labels:
Assay in all cases: log2 fold change, soluble protein after heating vs DMSO (PISA); higher = thermal stabilisation; K562 cells, 10 uM, 30 min; active = over 0.2 and 3.5 SD of the protein, either way, in both replicates (recomputed)
[1] = compound: C1=CC=C(C=C1)[C@H](COC2=CC3=C(C=C2)NC(=O)N3)NC(=O)C4=CC=CN(C4=O)CC5=CC(=C(C=C5)F)F
Procedure, shortened: (§1)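 Soluble protein was quantified by TMTpro 16plex LC-MS/MS after channel sums were equalised. It was obtained as the supernatant after 21,000xg for 90 min from pooled aliquots of K562 cells (2×10^6 cells/mL, 10 μM compound, 30 min) heated for 3 min across 48°C-58°C and extracted in PBS with 0.5% NP-40 at 4°C. Thermal stability values are relative to control samples and come from duplicates. They are given as log2 fold changes.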

Protein sequences, listed by entry. Tags and fused reporters are not part of them. Lines headed by an entry give the natural chain unless they say otherwise; changes in a name come on top.
UniProt Q9Y605: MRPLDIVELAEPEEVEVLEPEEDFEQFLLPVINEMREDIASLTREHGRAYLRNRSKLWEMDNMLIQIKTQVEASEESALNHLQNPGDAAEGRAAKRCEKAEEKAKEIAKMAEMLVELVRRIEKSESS
UniProt Q567V2: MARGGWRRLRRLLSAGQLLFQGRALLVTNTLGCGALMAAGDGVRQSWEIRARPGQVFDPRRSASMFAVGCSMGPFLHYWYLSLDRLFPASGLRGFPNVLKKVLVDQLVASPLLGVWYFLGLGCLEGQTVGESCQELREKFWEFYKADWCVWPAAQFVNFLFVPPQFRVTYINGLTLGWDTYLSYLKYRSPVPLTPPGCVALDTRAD
UniProt Q9NXC5: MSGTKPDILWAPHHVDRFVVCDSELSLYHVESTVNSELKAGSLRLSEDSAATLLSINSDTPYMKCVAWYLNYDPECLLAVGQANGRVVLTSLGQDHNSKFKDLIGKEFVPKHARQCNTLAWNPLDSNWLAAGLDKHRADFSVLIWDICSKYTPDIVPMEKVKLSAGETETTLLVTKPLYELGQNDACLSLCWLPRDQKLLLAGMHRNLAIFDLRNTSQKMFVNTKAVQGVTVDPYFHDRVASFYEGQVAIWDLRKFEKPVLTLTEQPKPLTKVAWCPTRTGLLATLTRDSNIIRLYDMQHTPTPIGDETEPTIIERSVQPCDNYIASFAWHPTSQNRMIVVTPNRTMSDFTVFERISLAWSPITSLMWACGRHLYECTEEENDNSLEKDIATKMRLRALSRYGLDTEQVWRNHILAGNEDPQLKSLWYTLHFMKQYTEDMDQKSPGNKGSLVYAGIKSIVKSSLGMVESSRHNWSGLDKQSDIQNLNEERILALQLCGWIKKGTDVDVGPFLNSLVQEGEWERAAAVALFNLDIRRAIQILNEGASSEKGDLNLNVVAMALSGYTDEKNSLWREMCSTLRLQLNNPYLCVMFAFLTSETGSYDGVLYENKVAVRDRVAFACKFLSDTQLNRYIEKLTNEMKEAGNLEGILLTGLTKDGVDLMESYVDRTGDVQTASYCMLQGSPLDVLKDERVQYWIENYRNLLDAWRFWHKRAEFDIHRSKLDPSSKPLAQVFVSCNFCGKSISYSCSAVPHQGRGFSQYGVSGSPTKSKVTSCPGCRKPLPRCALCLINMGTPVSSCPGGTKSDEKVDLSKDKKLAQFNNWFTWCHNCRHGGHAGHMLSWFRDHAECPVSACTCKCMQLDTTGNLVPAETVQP
UniProt Q9UBU8, whole entry, looked up: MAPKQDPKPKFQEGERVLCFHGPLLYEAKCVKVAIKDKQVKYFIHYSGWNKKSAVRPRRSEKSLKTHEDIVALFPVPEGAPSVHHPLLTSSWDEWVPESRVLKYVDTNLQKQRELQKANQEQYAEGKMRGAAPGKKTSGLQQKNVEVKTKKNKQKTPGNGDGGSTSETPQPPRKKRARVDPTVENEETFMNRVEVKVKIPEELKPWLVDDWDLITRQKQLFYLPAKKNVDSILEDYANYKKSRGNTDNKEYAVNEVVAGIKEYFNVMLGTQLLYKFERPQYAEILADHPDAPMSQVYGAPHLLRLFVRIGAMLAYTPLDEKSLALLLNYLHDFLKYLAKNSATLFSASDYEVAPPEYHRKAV
UniProt Q9BVC4, whole entry, looked up: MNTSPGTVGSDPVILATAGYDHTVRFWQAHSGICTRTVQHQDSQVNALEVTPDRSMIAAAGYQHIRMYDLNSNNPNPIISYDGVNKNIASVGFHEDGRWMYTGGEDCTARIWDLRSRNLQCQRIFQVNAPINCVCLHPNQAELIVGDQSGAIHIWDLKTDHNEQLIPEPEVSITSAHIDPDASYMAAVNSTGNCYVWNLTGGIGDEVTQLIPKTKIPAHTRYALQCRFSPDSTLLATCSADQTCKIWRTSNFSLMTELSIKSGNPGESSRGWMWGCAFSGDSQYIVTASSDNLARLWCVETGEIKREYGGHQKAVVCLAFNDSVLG
UniProt P51948: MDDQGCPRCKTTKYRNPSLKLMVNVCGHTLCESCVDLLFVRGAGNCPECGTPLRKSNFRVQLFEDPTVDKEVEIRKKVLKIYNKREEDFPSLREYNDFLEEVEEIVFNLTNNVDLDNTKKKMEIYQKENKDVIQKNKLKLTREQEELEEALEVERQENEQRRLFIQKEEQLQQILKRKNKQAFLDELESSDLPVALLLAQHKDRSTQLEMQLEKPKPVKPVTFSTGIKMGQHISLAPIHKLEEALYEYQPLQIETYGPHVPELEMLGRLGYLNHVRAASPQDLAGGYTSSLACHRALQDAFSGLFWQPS
UniProt Q8N4C8: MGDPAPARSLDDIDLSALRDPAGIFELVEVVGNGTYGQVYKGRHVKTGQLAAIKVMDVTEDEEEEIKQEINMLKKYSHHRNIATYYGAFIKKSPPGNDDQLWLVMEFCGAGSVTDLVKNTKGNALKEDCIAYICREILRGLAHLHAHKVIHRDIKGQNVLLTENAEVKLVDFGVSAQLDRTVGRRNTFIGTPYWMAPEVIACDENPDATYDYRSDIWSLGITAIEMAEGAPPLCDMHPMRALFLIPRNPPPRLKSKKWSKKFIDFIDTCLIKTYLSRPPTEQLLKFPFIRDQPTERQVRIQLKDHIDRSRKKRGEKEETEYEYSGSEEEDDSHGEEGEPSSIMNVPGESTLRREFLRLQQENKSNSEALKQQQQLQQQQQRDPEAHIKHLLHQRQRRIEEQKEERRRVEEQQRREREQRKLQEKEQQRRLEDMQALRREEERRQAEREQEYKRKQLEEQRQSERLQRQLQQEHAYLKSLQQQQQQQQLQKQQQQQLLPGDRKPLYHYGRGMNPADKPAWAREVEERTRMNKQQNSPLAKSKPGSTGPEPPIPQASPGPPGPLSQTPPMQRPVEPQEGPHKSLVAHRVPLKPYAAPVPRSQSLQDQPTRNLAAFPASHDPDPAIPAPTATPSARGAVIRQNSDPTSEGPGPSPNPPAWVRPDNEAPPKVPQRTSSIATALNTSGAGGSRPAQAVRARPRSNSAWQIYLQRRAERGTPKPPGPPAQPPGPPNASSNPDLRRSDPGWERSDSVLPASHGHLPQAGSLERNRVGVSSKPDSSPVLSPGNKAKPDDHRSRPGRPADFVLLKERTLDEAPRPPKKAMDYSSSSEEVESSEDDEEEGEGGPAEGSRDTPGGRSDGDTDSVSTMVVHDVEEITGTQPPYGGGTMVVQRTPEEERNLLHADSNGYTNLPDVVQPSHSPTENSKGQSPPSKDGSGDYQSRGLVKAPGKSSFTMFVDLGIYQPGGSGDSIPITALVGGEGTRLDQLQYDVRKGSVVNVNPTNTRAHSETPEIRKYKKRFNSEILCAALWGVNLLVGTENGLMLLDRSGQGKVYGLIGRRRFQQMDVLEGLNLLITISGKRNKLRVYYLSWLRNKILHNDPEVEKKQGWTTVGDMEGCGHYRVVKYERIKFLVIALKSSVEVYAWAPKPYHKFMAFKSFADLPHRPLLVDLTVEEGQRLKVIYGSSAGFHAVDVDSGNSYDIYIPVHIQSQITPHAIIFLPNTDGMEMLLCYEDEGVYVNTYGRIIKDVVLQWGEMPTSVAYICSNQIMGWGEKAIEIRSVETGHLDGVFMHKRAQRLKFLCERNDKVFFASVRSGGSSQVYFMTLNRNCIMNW
UniProt Q8WV92, whole entry, looked up: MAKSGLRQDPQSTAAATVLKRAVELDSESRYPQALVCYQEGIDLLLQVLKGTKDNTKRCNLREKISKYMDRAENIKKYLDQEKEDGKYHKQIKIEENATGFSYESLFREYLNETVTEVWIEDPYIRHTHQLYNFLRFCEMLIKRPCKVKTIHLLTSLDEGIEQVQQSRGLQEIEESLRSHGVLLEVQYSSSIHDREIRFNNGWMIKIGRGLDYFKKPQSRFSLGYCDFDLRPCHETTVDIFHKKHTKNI
UniProt Q9H081: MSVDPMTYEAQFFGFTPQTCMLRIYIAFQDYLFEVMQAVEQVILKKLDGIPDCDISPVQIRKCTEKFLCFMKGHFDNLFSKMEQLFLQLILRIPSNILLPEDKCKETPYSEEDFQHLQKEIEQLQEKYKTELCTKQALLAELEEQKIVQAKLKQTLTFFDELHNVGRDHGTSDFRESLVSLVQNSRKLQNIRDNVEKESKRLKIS
UniProt Q9H000: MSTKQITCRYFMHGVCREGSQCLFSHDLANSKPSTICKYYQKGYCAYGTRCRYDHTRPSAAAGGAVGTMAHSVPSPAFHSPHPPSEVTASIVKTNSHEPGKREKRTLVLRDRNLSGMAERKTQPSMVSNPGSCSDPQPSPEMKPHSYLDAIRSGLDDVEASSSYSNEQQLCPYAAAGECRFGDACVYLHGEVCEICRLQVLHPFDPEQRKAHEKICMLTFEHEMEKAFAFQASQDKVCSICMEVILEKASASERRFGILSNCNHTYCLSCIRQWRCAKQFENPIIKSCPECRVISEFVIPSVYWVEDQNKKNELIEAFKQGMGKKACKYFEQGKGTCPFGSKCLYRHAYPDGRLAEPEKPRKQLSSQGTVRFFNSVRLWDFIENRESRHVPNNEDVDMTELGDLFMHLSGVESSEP
UniProt Q9NZB8: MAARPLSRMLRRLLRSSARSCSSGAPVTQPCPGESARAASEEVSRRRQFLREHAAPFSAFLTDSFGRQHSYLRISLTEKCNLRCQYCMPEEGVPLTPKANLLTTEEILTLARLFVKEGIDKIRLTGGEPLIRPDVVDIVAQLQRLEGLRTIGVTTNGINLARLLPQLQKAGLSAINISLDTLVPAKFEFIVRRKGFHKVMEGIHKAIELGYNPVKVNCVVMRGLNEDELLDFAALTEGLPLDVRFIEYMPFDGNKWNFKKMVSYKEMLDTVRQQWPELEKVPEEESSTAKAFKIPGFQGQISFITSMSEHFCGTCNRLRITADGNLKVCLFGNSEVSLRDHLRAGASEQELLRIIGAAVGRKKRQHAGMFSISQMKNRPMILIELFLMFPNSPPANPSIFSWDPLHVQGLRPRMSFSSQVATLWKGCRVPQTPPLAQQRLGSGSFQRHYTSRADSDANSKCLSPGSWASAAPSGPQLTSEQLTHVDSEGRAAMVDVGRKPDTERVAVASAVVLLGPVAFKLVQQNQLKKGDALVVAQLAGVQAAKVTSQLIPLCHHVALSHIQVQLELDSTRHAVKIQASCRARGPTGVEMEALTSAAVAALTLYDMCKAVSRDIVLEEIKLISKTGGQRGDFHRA
UniProt Q9UHC7: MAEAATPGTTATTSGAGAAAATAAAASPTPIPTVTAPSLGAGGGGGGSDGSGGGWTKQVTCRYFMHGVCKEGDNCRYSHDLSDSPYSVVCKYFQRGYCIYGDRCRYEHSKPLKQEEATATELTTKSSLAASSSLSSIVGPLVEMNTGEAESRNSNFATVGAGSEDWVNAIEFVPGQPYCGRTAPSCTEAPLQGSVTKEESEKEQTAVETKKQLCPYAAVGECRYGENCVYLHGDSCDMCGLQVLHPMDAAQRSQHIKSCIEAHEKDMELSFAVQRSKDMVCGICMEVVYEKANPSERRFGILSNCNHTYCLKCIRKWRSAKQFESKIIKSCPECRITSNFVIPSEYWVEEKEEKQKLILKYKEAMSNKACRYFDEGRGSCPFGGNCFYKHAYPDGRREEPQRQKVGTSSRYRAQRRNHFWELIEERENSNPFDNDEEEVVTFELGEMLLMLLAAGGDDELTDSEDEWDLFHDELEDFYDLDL
UniProt Q9NV56, whole entry, looked up: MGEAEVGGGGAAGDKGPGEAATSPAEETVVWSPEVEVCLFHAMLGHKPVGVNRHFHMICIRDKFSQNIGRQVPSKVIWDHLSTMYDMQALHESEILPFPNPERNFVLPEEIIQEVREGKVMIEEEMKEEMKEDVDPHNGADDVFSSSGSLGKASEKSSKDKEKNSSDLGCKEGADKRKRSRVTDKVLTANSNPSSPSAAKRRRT
UniProt Q29983, whole entry, looked up: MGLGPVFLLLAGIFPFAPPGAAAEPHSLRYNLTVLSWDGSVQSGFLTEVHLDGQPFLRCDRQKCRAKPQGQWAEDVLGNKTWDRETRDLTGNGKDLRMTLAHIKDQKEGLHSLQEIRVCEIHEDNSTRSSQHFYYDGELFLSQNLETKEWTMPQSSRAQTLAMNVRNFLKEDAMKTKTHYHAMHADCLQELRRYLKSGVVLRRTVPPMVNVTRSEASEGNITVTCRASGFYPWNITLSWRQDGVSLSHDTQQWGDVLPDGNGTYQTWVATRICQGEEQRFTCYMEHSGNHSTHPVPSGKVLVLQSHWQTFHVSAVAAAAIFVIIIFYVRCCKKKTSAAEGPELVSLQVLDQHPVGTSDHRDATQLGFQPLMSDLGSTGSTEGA
UniProt Q8IVH4: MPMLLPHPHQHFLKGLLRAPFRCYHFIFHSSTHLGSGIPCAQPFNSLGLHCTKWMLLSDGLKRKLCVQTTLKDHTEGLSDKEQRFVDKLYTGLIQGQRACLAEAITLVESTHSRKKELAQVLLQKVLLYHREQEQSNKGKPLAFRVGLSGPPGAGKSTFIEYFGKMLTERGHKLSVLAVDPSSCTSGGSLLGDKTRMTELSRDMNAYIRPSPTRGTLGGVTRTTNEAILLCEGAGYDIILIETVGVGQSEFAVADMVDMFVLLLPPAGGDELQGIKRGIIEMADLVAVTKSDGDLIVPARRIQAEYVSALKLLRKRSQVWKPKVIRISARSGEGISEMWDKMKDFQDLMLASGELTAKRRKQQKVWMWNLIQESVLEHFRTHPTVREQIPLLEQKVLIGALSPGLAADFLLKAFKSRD

[2] = compound: CC1=C(SC2=C1C(=N[C@H](C3=NN=C(N32)C)CC(=O)N)C4=CC=C(C=C4)Cl)C
Procedure, shortened: as §1

[3] = compound: CC1=C2C(=CC=C1)N=C(N(C2=O)C3=CC=CC=C3C)CN4C=NC5=C(N=CN=C54)N
Procedure, shortened: as §1

[4] = compound: Cc1sc2c(c1C)C(c1ccc(Cl)cc1)=N[C@@H](CC(=O)OC(C)(C)C)c1nnc(C)n1-2
Procedure, shortened: as §1

[5] = compound: c1ccc([C@@H]2C[C@H]2NC2CCNCC2)cc1
Procedure, shortened: as §1

Measured: log2 fold change

MRPL50 (UniProt Q8N5N7)
inactive: [1] 0.11 | [2] 0.01 | [3] -0.079 | [4] -0.022 | [5] -0.05

MKKS (UniProt Q9HB66)
inactive: [1] 0.061 | [2] 0.006 | [3] -0.114 | [4] -0.059 | [5] 0.014

MRFAP1 (UniProt Q9Y605)
inactive: [1] 0.009 | [2] 0.109 | [3] -0.043 | [4] 0.031 | [5] -0.017

MPV17L2 (UniProt Q567V2)
inactive: [1] -0.02 | [2] 0.019 | [3] 0.022 | [4] -0.108 | [5] 0.068

MRPL17 (UniProt Q9NRX2)
inactive: [1] 0.033 | [2] -0.175 | [3] -0.062 | [4] 0.031 | [5] -0.047

MIOS (UniProt Q9NXC5)
inactive: [1] 0.022 | [2] -0.043 | [3] -0.027 | [4] 0.102 | [5] -0.011

MOV10 (UniProt Q9HCE1)
inactive: [1] 0.067 | [2] -0.095 | [3] -0.095 | [4] 0.145 | [5] 0.057

MIPEP (UniProt Q99797)
inactive: [1] -0.011 | [2] 0.06 | [3] 0.113 | [4] -0.004 | [5] -0.02

MORF4L1 isoform 2 (UniProt Q9UBU8)
inactive: [1] 0.028 | [2] -0.018 | [3] 0.095 | [4] -0.029 | [5] 0.004

MLST8 (UniProt Q9BVC4)
inactive: [1] -0.038 | [2] 0.062 | [3] 0.082 | [4] -0.05 | [5] -0.071

MNAT1 (UniProt P51948)
inactive: [1] 0.011 | [2] 0.088 | [3] 0.005 | [4] 0.033 | [5] 0.068

MINK1 (UniProt Q8N4C8)
inactive: [1] -0.036 | [2] 0.024 | [3] -0.01 | [4] 0.037 | [5] 0.005

MITD1 (UniProt Q8WV92)
inactive: [1] -0.058 | [2] 0.022 | [3] -0.326 | [4] 0.045 | [5] 0.06

MINDY3 (UniProt Q9H8M7)
inactive: [1] -0.027 | [2] 0.021 | [3] 0.031 | [4] -0.039 | [5] -0.077

MRPL16 (UniProt Q9NX20)
inactive: [1] -0.047 | [2] -0.328 | [3] -0.093 | [4] 0.047 | [5] -0.03

MPRIP isoform 2 (UniProt Q6WCQ1)
inactive: [1] -0.014 | [2] 0 | [3] 0.022 | [4] -0.038 | [5] 0.005

MRPL45 (UniProt Q9BRJ2)
inactive: [1] 0.051 | [2] -0.007 | [3] 0 | [4] 0.065 | [5] -0.098

MOB3A (UniProt Q96BX8)
inactive: [1] -0.027 | [2] 0.056 | [3] 0.157 | [4] -0.044 | [5] 0.017

MRM1 (UniProt Q6IN84)
inactive: [1] 0.048 | [2] -0.303 | [3] -0.084 | [4] 0.165 | [5] 0.009

MIS12 (UniProt Q9H081)
inactive: [1] -0.02 | [2] 0.013 | [3] 0.064 | [4] -0.117 | [5] -0.022

MKNK1 (UniProt Q9BUB5)
inactive: [1] -0.056 | [2] 0.039 | [3] 0.065 | [4] 0.03 | [5] -0.009

MRPL48 (UniProt Q96GC5)
inactive: [1] -0.023 | [2] -0.094 | [3] -0.134 | [4] 0.08 | [5] 0.026

MRPL30 isoform 2 (UniProt Q8TCC3)
inactive: [1] 0.046 | [2] -0.124 | [3] -0.123 | [4] 0.109 | [5] -0.04

MRPL20 (UniProt Q9BYC9)
inactive: [1] 0.026 | [2] -0.119 | [3] -0.064 | [4] 0.087 | [5] -0.152

MRPL19 (UniProt P49406)
inactive: [1] 0.003 | [2] -0.125 | [3] -0.082 | [4] 0.047 | [5] -0.022

MKRN2 (UniProt Q9H000)
inactive: [1] 0.029 | [2] 0.046 | [3] 0.143 | [4] 0.122 | [5] -0.017

MRPL28 (UniProt Q13084)
inactive: [1] 0.015 | [2] -0.192 | [3] -0.084 | [4] 0.004 | [5] -0.078

MOCS1 isoform 8 (UniProt Q9NZB8)
inactive: [1] -0.104 | [2] 0.004 | [3] 0.057 | [4] 0.047 | [5] 0.081

MIEF1 (UniProt Q9NQG6)
inactive: [1] -0.043 | [2] 0.053 | [3] 0.047 | [4] -0.024 | [5] -0.054

MRPL37 (UniProt Q9BZE1)
inactive: [1] -0.013 | [2] -0.048 | [3] -0.019 | [4] 0.012 | [5] -0.042

MRPL55 isoform 2 (UniProt Q7Z7F7)
inactive: [1] 0.008 | [2] -0.081 | [3] -0.028 | [4] 0.121 | [5] -0.003

MRPL41 (UniProt Q8IXM3)
inactive: [1] 0.119 | [2] -0.12 | [3] -0.073 | [4] 0.108 | [5] 0.011

MKRN1 (UniProt Q9UHC7)
inactive: [1] 0.131 | [2] -0.045 | [3] -0.138 | [4] 0.046 | [5] 0.066

MOCS2 (UniProt O96007)
inactive: [1] 0.042 | [2] 0.039 | [3] 0.035 | [4] -0.002 | [5] 0.032

MRGBP (UniProt Q9NV56)
inactive: [1] -0.028 | [2] -0.015 | [3] 0.037 | [4] -0.049 | [5] 0.011

Quoted at random: 3 entries already listed, in no set order.
MKRN1 (UniProt Q9UHC7)
inactive: [1] 0.131 | [2] -0.045 | [3] -0.138 | [4] 0.046 | [5] 0.066

MOCS2 (UniProt O96007)
inactive: [1] 0.042 | [2] 0.039 | [3] 0.035 | [4] -0.002 | [5] 0.032

MRPL37 (UniProt Q9BZE1)
inactive: [1] -0.013 | [2] -0.048 | [3] -0.019 | [4] 0.012 | [5] -0.042

The listing continues:

MICA (UniProt Q29983)
inactive: [1] -0.008 | [3] 0.027 | [4] -0.011

MPI (UniProt P34949)
inactive: [1] -0.005 | [2] 0.04 | [3] 0.017 | [4] 0.015 | [5] 0.062

MIGA2 (UniProt Q7L4E1)
inactive: [2] -0.173 | [5] -0.345

MITF (UniProt O75030)
inactive: [3] -0.059

MMAA (UniProt Q8IVH4)
inactive: [2] 0.105 | [5] -0.244

MLX (UniProt Q9UH92)
inactive: [1] -0.055 | [2] 0.032 | [4] 0.093 | [5] -0.011

Reference: the supplement of paper PMC10849652
